From a melanoma drug combination screen (doi:10.1371/journal.pone.0140310); values rounded.

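Human melanoma cell lines in 1,536-well plates were treated with a pair of drugs for 72 h, then fixed, stained and imaged. Each value is the cleaved-PARP-positive fraction of nuclei relative to DMSO-treated wells, in %, so that 100 equals the control and higher values mean more apoptosis. Every drug was used at one fixed concentration, the higher of two screened. The file gives one value for each pair and line, without errors, so small differences may be noise. The marker varies much from line to line, for technical or biological reasons.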
Only some of the drugs and lines screened are listed, without regard to their results.

Compounds and concentrations:
fludarabine, 1 µM: Nc1nc(F)nc2c1ncn2[C@@H]1O[C@H](CO)[C@@H](O)[C@@H]1O
sorafenib, 2 µM: CNC(=O)c1cc(Oc2ccc(NC(=O)Nc3ccc(Cl)c(C(F)(F)F)c3)cc2)ccn1

With sorafenib and fludarabine the screen read UACC-257: 1640; SK-MEL-5: 908; RVH-421: 55.4; IST-MEL1: 509; WM3526: 916; G-361: 147; WM1716: 30.7; RPMI-7951: 197.